Experimental data as given in the supplement of paper PMC7830784.
Counter-ions that a name gives are not always drawn. Some of the results follow. Repeats in this data set agree poorly, so a single value says little. Non-standard residues stand in square brackets, D forms with d. Residues, ends and D or L forms follow the SMILES beside them. pGlu = O=C1CC[C@@H](C(=O)O)N1; Thz = O=C(O)[C@@H]1CSCN1

These molecules were tested on Brugia pahangi adult female (assay: motility inhibition on day 3 relative to DMSO vehicle; higher = more active). Details: 10 µM; 3 days.

SMILES	motility inhibition on day 3 [%]
CC(=O)[C@H]1CC[C@H]2[C@@H]3CC=C4C[C@@H](O)CC[C@]4(C)[C@H]3CC[C@]12C [pregnenolone]	66.2
CN(C)c1ccc(C(=C2C=CC(=[N+](C)C)C=C2)c2ccc(N(C)C)cc2)cc1 [gentian violet]	93.8
Cc1nc(-c2ccc(OCC(C)C)c(C#N)c2)sc1C(=O)O [febuxostat]	< 0
CC(C)(C)c1ccc(C(O)CCCN2CCC(C(O)(c3ccccc3)c3ccccc3)CC2)cc1 (stereo not given) [terfenadine]	9.45
CC(COc1ccccc1)NC(C)C(O)c1ccc(O)cc1 (stereo not given) [isoxsuprine hydrochloride]	28.3
CO/N=C1\C[C@]2(C[C@@H]3C[C@@H](C/C=C(\C)C[C@@H](C)/C=C/C=C4\CO[C@@H]5[C@H](O)C(C)=C[C@@H](C(=O)O3)[C@]45O)O2)O[C@H](/C(C)=C/C(C)C)[C@H]1C [moxidectin]	58.3
CCCCN1CCCCC1C(=O)Nc1c(C)cccc1C (stereo not given) [bupivacaine hydrochloride]	< 0
CCOC(=O)NNc1nncc2ccccc12 [todralazine hydrochloride]	7.8
CCN(CC)C(=O)c1ccc(O)c(OC)c1 [ethamivan]	2.1
O=C(c1ccc(F)cc1)C1CCN(CCn2c(=O)[nH]c3ccccc3c2=O)CC1 [Ketanserin tartrate]	< 0
CC(=O)[C@@]1(O)CC[C@H]2[C@@H]3CCC4=CC(=O)CC[C@]4(C)[C@H]3CC[C@@]21C [hydroxyprogesterone]	< 0
O=C1NCC2(CCN(CCc3ccccc3)CC2)O1 [fenspiride hydrochloride]	21.9
Clc1ccc2c(c1)CCc1cccnc1C2=C1CCNCC1 [desloratidine]	< 0
CN(C)CCOC(c1ccccc1)c1ccccc1.Cn1c(=O)c2[nH]c(Cl)nc2n(C)c1=O [dimenhydrinate]	< 0
Cc1cc2nc3c(=O)[nH]c(=O)nc-3n(C[C@H](O)[C@H](O)[C@H](O)CO)c2cc1C [riboflavin]	36.2
CO[C@H]1/C=C/O[C@@]2(C)Oc3c(C)c(O)c4c(O)c(c5c(nc6cc(C)ccn65)c4c3C2=O)NC(=O)/C(C)=C\C=C\[C@H](C)[C@H](O)[C@@H](C)[C@@H](O)[C@@H](C)[C@H](OC(C)=O)[C@@H]1C [rifaximin]	40.5
C[C@]12C=CC(=O)N[C@@H]1CC[C@@H]1[C@@H]2CC[C@]2(C)[C@@H](C(=O)Nc3cc(C(F)(F)F)ccc3C(F)(F)F)CC[C@@H]12 [dutasteride]	7.08
Clc1cccc(Cl)c1NC1=NCCN1 [Clonidine hydrochloride]	8.12
CC(=O)O[C@]1(C(C)=O)CC[C@H]2[C@@H]3C=C(Cl)C4=CC(=O)CC[C@]4(C)[C@H]3CC[C@@]21C [chlormadinone acetate]	< 0
CCCNC(=O)NS(=O)(=O)c1ccc(Cl)cc1 [Chlorpropamide]	0.435
CCN(CC)C(C)CN1c2ccccc2Sc2ccccc21 (stereo not given) [ethopropazine hydrochloride]	30.2
Cc1cc(O)c(C(=O)N[C@@H](C(=O)N[C@@H]2C(=O)N3C(C(=O)O)=C(CSc4nnnn4C)CS[C@H]23)c2ccc(O)cc2)cn1 [cefpiramide]	1.04
CC1CC2C3CCC4=CC(=O)C=CC4(C)C3(F)C(O)CC2(C)C1C(=O)CO (stereo not given) [desoxymetasone]	< 0

SMILES	motility inhibition on day 3 [%]
CC=CC(=O)N(CC)c1ccccc1C [crotamiton]	9.71
CC1=C(C)C(=O)C(C(CCCCCC(=O)O)c2ccccc2)=C(C)C1=O (stereo not given) [seratrodast]	8.95
Cc1nc2c([nH]1)-c1ccccc1N(C(=O)c1ccc(NC(=O)c3ccccc3-c3ccccc3)cc1)CC2 [Conivaptan Hydrochloride]	< 0
CNCCc1ccccn1 [betahistine hydrochloride]	15.3
NCCCCCC(=O)O [aminocaproic acid]	6.53
CN(C)C(=N)NC(=N)N [metformin hydrochloride]	7.37
Nc1nc2c(ncn2COC(CO)CO)c(=O)[nH]1 [ganciclovir]	12.7
CCCCCCCCCCCCCCCC(=O)OC[C@H](O)[C@H]1OC(=O)C(O)=C1O [ascorbyl palmitate]	54.6
Cn1c(=O)c2c(ncn2CC2OCCO2)n(C)c1=O [doxofylline]	< 0
CN(CCCCCCCCCCN(C)C(=O)Oc1cccc([N+](C)(C)C)c1)C(=O)Oc1cccc([N+](C)(C)C)c1 [Demecarium Bromide]	< 0
CC(=O)N(CC(O)CO)c1c(I)c(C(=O)NCC(O)CO)c(I)c(C(=O)NCC(O)CO)c1I (stereo not given) [iohexol]	7.94
COC(=O)Nc1nc2cc(Sc3ccccc3)ccc2[nH]1 [fenbendazole]	38.9
CC(=O)N(CC(O)CO)c1c(I)c(C(=O)NCCO)c(I)c(C(=O)NCC(O)CO)c1I (stereo not given) [ioxilan]	< 0
CN1CCN(CC(=O)N2c3ccccc3C(=O)Nc3cccnc32)CC1 [Pirenzepine dihydrochloride]	23.5
C[C@H]1C[C@H]2[C@@H]3CCC4=CC(=O)C=C[C@]4(C)[C@@]3(F)[C@@H](O)C[C@]2(C)[C@@]1(O)C(=O)COP(=O)(O)O [betamethasone sodium phosphate]	18.2
CCCCC(CC)COC(=O)CC(C(=O)OCC(CC)CCCC)S(=O)(=O)O (stereo not given) [docusate sodium]	87.8
CC(=O)OCC1=C(C(=O)O)N2C(=O)[C@@H](NC(=O)CC#N)[C@H]2SC1 [Cefacetrile]	5.53
Nc1ncnc2c1ncn2[C@@H]1O[C@H](CO)[C@@H](O)[C@@H]1O [vidarabine]	0.131
CCOc1nc2cccc(C(=O)O)c2n1Cc1ccc(-c2ccccc2-c2nnn[nH]2)cc1 [candesartan]	18.6
CC[C@H](C)[C@H](N)C(=O)O [isoleucine (l)]	18.4
CN(C)CCC(c1ccc(Br)cc1)c1ccccn1 (stereo not given) [brompheniramine maleate]	16.2
O=C1CC[C@@H](C(=O)N2CSC[C@H]2C(=O)O)N1 [pidotimod] ([pGlu]-[Thz]-OH)	< 0

2 compounds picked at random from those above, as already listed:
SMILES	motility inhibition on day 3 [%]
CCN(CC)C(=O)c1ccc(O)c(OC)c1 [ethamivan]	2.1
Cc1nc(-c2ccc(OCC(C)C)c(C#N)c2)sc1C(=O)O [febuxostat]	< 0
